# PubChem BioAssay AID540256 (National Center for Advancing Translational Sciences (NCATS), 2011)
# About 3,700 (1.2%) of roughly 300,000 compounds were called active. Inconclusive means that the source gave no clear call. Such entries were picked first, then a sample of the others. Calls come from the whole dose curve; tested in HEK293 cells. Where the call is inconclusive, the potency comes from a doubtful curve fit.
# Assay: qHTS for Inhibitors of binding or entry into cells for Lassa Virus; note: nearly all actives have a fitted effect of over 50% in size
# Settings: Lassa virus pseudotype entry inhibition, cell reporter; activity change, negative = inhibition: at 37.9 µM (top of the series) unless noted
# % is set by controls: 0 for no effect and ±100 for the full control effect; potency is the fitted concentration of half-maximal effect.
Compound,Potency,"activity change, negative = inhibition"
CCOc1ccc(C(=O)Nc2cc(C)ccn2)cc1,"inconclusive: 6.31 µM [inhibitor, partial curve, poor fit]",–
CC(C)OCCCNc1ncc2c(n1)CC(c1cccs1)CC2=O (stereo unspecified),"inconclusive: 11.2 µM [inhibitor, partial curve]",–
Cc1ccc(NC(=O)Cc2noc3ccccc23)c(C)c1,–,inactive: 18.7%
CN(C)C(=O)N1CCC(C(=O)NCC2CCCO2)CC1 (stereo unspecified),"inconclusive: 6.51 µM [activator, full curve]",–
CC(C)(C)NC(=O)CN(C(=O)Cn1nnc(-c2ccccc2F)n1)c1cccc2c1CCCC2,"inconclusive: 32.6 µM [inhibitor, single point]",–
CC1(C)NC(=O)N(CCOCCSc2ccccc2)C1=O,"inconclusive: 29.1 µM [activator, single point]",–
O=C(NCc1nc(-c2ccc(C(F)(F)F)cc2)no1)Nc1ccc(F)cc1F,–,inactive: 15.3%
COc1ccc(CN(C(=O)c2ccc(-c3ccccc3)[nH]2)C(C(=O)NCC2CCCO2)c2ccc(C)o2)cc1 (stereo unspecified),"inconclusive: 15.8 µM [inhibitor, partial curve, poor fit]",–
Cc1ccc(NC(=O)CCC(=O)Nc2ccc(C)cc2)cc1,–,inactive: 3.2%
O=C(COC(=O)c1cncc(Br)c1)NC1CCCCCC1,–,inactive: 5.86% [at 46.1 µM]
COc1ccc2c(=O)cc(-c3ccccc3F)oc2c1,"inconclusive: 1.26 µM [activator, partial curve, poor fit]",–
COc1ccc(-c2[nH]ncc2C2N=C(N)Nc3nc4ccccc4n32)cc1 (stereo unspecified),"inconclusive: 1.26 µM [inhibitor, single point]",–
CN(C)S(=O)(=O)c1cccc(NC(=O)CCSc2ccc(Cl)cc2)c1,active: 10 µM,–
COc1cccc(CNC(=O)CCC2CCCN(C(=O)c3cc4ccccc4o3)C2)c1 (stereo unspecified),"inconclusive: 14.1 µM [inhibitor, partial curve, poor fit]",–
COCCN1C(=O)/C(=C/c2ccc(Oc3ccc([N+](=O)[O-])cn3)c(OC)c2)SC1=Nc1ccccc1,"inconclusive: 23.1 µM [inhibitor, partial curve, poor fit]",–
COc1ccc(NC(=O)C2CC(=O)OC2(C)C)cc1 (stereo unspecified),–,inactive: -23.2%
CCOc1cc(-c2nnc(SCC(=O)NCc3ccc(C)cc3)nc2-c2ccc(OC)c(OCC)c2)ccc1OC,"inconclusive: 0.316 µM [inhibitor, full curve]",–
C/C(=N\Nc1nc(-c2ccccc2)cs1)c1cccs1,"inconclusive: 16.4 µM [activator, partial curve, poor fit]",–
CNC(=S)Nc1ccc(-c2nc3ccc(C)cc3s2)cc1,"inconclusive: 25.1 µM [inhibitor, single point]",–
CC(CCc1ccccc1)NCCC#N (stereo unspecified),–,inactive: -19.3% [at 46.1 µM]
N#Cc1c(NC(=O)CSc2ncc(-c3ccccc3)n2CC2CCCO2)sc2c1CCCC2 (stereo unspecified),active: 7.3 µM,–
COc1ccc(Nc2nccc3c2ncn3C)cc1,"inconclusive: 35.5 µM [inhibitor, single point]",–
O=C(CCS(=O)(=O)c1cccs1)N1CCCC1,"inconclusive: 6.51 µM [activator, partial curve]",–
Cn1c(COc2nnc(-c3ccc(Cl)cc3)c3ccccc23)nc2ccccc21,"inconclusive: 0.0183 µM [inhibitor, full curve, poor fit]",–

Compound,Potency,"activity change, negative = inhibition"
COc1ccc(/C=N/NC(=O)c2nc(-c3ccccc3)cc(-c3ccccc3)n2)cc1,"inconclusive: 20 µM [inhibitor, partial curve, poor fit]",–
CCc1ccc(NC(=O)c2cc3c(C)nc4ccccc4c3o2)cc1,"inconclusive: 12.6 µM [inhibitor, partial curve, poor fit]",–
O=C(Cc1cccs1)Nc1cc(SCCO)cc([N+](=O)[O-])c1,"inconclusive: 6.51 µM [inhibitor, partial curve, poor fit]",–
COc1ccc(Cl)cc1C(=O)Nc1ccc(S(N)(=O)=O)cc1,–,inactive: -9.04%
Cc1ccc(N(C(=O)c2csnn2)C(C(=O)NC(C)(C)C)c2ccncc2)cc1 (stereo unspecified),–,inactive: 9.99%
O=P(O)(CCc1ccccc1)CN1CCCCC1,"inconclusive: 29.1 µM [activator, partial curve, poor fit]",–
NC(=O)C1(c2ccccc2)CCC(=O)N1c1ccccc1 (stereo unspecified),"inconclusive: 0.708 µM [inhibitor, full curve, poor fit]",–
Cc1ccccc1NC(=O)N1CCC(CN2CCCC2)CC1,"inconclusive: 35.5 µM [activator, single point]",–
O=C(Nc1ccccc1N1CCCC1)C1CCN(S(=O)(=O)c2cccc(C(F)(F)F)c2)CC1,–,inactive: -29.2%
Fc1ccc(OCc2nnc(SCCN3CCOCC3)o2)cc1,–,inactive: -1.46%
COc1ccc(/C=C/C(=O)OCC(=O)Nc2cccc(S(=O)(=O)NC3=NCCCCC3)c2)cc1,"inconclusive: 35.5 µM [inhibitor, single point]",–
Cc1ccc2oc(C(=O)Nc3sc4c(c3C(=O)NCc3ccccc3)CCCC4)cc(=O)c2c1,–,inactive: 19.1% [at 46.1 µM]
O=C(N/N=C/c1c(O)ccc2ccccc12)c1cccc(C(F)(F)F)c1,"inconclusive: 2.59 µM [inhibitor, full curve]",–
CCOc1ccc(N(CC(=O)NC2CCCCC2)C(=O)CNC(=O)c2cccs2)cc1,"inconclusive: 1.26 µM [activator, single point]",–
CCCCC1OC23CCCCC2C(C#N)(C(=N)O3)C1(C#N)C#N (stereo unspecified),–,inactive: -16.4%
Cc1ccccc1C(=O)Nc1ccc(Cl)cn1,"inconclusive: 1.3 µM [activator, partial curve, poor fit]",–
Cc1ccc(-n2nnnc2SCC(=O)N2CCc3ccccc3C2)c(C)c1,–,inactive: -50% [at 14.3 µM]
Cc1sc2ncnc(NCC(O)c3ccccc3)c2c1C (stereo unspecified),"inconclusive: 20.6 µM [inhibitor, partial curve]",–
CCOC(=O)c1ccc(N2CCN(c3ccccc3F)CC2)c(NC(=O)Nc2ccccc2)c1,"inconclusive: 11.2 µM [inhibitor, single point]",–
CC(C)COc1ccc2[nH]c3c(c2c1)CCCC3=O,"inconclusive: 7.08 µM [inhibitor, partial curve, poor fit]",–
CCc1cccc(-n2c(=O)c3cccnc3n2CC(=O)Nc2ccccc2C(=O)OC)c1,–,inactive: 18.8% [at 46.1 µM]
CCN1CCN(c2ncnc3c2sc(=S)n3-c2ccccc2)CC1,–,inactive: -0.31%
Cc1ccc(C)c(Nc2cc(C)nc3ncnn23)c1,"inconclusive: 0.562 µM [inhibitor, single point]",–
Cc1ccc(-n2ncc3c(N4CCCCCC4)ncnc32)cc1C,–,inactive: 22% [at 46.1 µM]

Compound,Potency,"activity change, negative = inhibition"
CC(Oc1ccc(Cl)cc1Cl)c1nc(-c2ccc(NC(=O)c3ccco3)cc2)no1 (stereo unspecified),"inconclusive: 29.1 µM [inhibitor, single point]",–
CC(C)(C)c1ccc(C(=O)Nc2cnccn2)cc1,"inconclusive: 16.4 µM [inhibitor, single point]",–
Cc1ccc(C(=O)Nc2ccc(N3CCN(C(=O)c4ccco4)CC3)cc2)c(Cl)c1,"inconclusive: 12.6 µM [inhibitor, partial curve, poor fit]",–
CCn1cc(C(=O)N2CCN(c3ccccc3OC)CC2)c(=O)c2cc(S(=O)(=O)N3CCC(C)CC3)ccc21,–,inactive: 6.54% [at 46.1 µM]
CCN(CC)C(=O)c1sc(NC(=O)c2ccncc2)c(C(=O)OC)c1C,"inconclusive: 12.6 µM [activator, partial curve, poor fit]",–
CSc1ccccc1NC(=O)COC(=O)CCc1ccccc1,–,inactive: 4.53%
O=[N+]([O-])c1ccc(Oc2cccc(F)c2)c2ccncc12,–,inactive: -12.2%
CCOc1ccc(C)cc1S(=O)(=O)NC1CCCCCC1,"inconclusive: 35.5 µM [activator, partial curve, poor fit]",–
CCOC(=O)/C=C/C(=O)N1CCN(C(=O)/C=C/C(=O)OCC)CC1,"inconclusive: 14.6 µM [inhibitor, single point]",–
COc1ccnc(N=CNOCc2cccc(C(F)(F)F)c2)c1C#N,"inconclusive: 3.98 µM [inhibitor, single point]",–
CCOc1cccc(/C=C/c2ccc3cccc(O)c3n2)c1OC,"inconclusive: 35.5 µM [inhibitor, single point]",–
Cc1c(C(=O)C(=O)N2c3ccccc3CC2C)c2ccccc2n1C (stereo unspecified),"inconclusive: 7.08 µM [inhibitor, full curve]",–
COc1ccc2cc(C3c4cc(OC)c(OC)cc4CCN3C(=O)c3ccco3)c(=O)[nH]c2c1 (stereo unspecified),"inconclusive: 5.01 µM [inhibitor, full curve]",–
CC1CCC2(CC1)NC(=S)N(c1ccccc1)N2 (stereo unspecified),"inconclusive: 10 µM [inhibitor, partial curve, poor fit]",–
CCCCCSc1cc(OC)c(CCNC)cc1OC,"inconclusive: 35.5 µM [inhibitor, single point]",–
Cc1ccc(C)c(C(C)NC(=S)NCc2ccc(F)cc2)c1 (stereo unspecified),–,inactive: -16.1% [at 46.1 µM]
Clc1cccc(CSc2ncn(-c3ccccc3)n2)c1,–,inactive: 12.3%
CCC(=O)N1CCc2cc(S(=O)(=O)N(CC)c3cccc(C)c3)ccc21,"inconclusive: 4.47 µM [inhibitor, partial curve, poor fit]",–
CCCCN1CNC(=S)N(CCc2ccccc2)C1,"inconclusive: 0.316 µM [inhibitor, partial curve, poor fit]",–
CCN(CC)CCN1C(=O)c2ccccc2NC1c1ccc(C)cc1 (stereo unspecified),–,inactive: -7.18%
c1ccc(Cc2nc3ccc(Nc4ncnc5ccccc45)cc3[nH]2)cc1,"inconclusive: 25 µM [activator, partial curve]",–
Cn1ccsc1=NC(=O)c1cccc(C#N)c1,–,inactive: 5.52% [at 46.1 µM]
COc1ccccc1CNC(=O)c1ccc2c(c1)N(Cc1ccc(C)cc1)CCS2,"inconclusive: 35.5 µM [inhibitor, single point]",–

# Taken from above.
# `Clc1cccc(CSc2ncn(-c3ccccc3)n2)c1` | activity change, negative = inhibition: inactive: 12.3%
# `CCOc1ccc(C)cc1S(=O)(=O)NC1CCCCCC1` | Potency: inconclusive: 35.5 µM [activator, partial curve, poor fit]
# `CC(C)(C)c1ccc(C(=O)Nc2cnccn2)cc1` | Potency: inconclusive: 16.4 µM [inhibitor, single point]
# `Cn1ccsc1=NC(=O)c1cccc(C#N)c1` | activity change, negative = inhibition: inactive: 5.52% [at 46.1 µM]
# `CCn1cc(C(=O)N2CCN(c3ccccc3OC)CC2)c(=O)c2cc(S(=O)(=O)N3CCC(C)CC3)ccc21` | activity change, negative = inhibition: inactive: 6.54% [at 46.1 µM]
